These are yes or no findings as the source states them, for the method shown. Binding seen in cells or lysates may run through a third protein. A result given as binding can be weak or reduced; the word gives no strength.
Experiments:
[1] = molecular target: V5-tagged EML4-Alk variant 1 (v1), full length; test: co-IP; V5 immunoprecipitation (antibody-loaded agarose beads, 4 °C overnight) from RIPA lysates of Beas2B cells transfected with V5-tagged EML4-Alk v1 full length or ΔTD; blots for endogenous proteins
[2] = molecular target: V5-tagged EML4-Alk v1 ΔTD mutant (trimerization domain deleted); test: as above

binding [1]: binds | binding [2]: binds
B1: YWHAG (14-3-3 protein) (protein, UniProt P61981 1-247)
chain: MVDREQLVQKARLAEQAERYDDMAAAMKNVTELNEPLSNEERNLLSVAYKNVVGARRSSWRVISSIEQKTSADGNEKKIEMVRAYREKIEKELEAVCQDVLSLLDNYLIKNCSETQYESKVFYLKMKGDYYRYLAEVATGEKRATVVESSEKAYSEAHEISKEHMQPTHPIRLGLALNYSVFYYEIQNAPEQACHLAKTAFDDAIAELDTLNEDSYKDSTLIMQLLRDNLTLWTSDQQDDDGGEGNN

Source: article PMC11631767
